Assay results

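A panel of P. falciparum strains inside erythrocytes is exposed to compounds for three days, then a DNA-binding dye reports the amount of parasite DNA.
Each compound was titrated across a series from about 0.000037 to 29 µM.
The number is the fitted AC50, the concentration giving a half-maximal change in signal; a lower value means higher potency, whether the curve shows a decrease or an increase.
Calls follow the curve class and fit quality: every row here is inconclusive, covering signal-raising curves and weak, poorly fitted, partial or highest-dose-only inhibition curves.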

Values are in nM.
All entries here are filed as inconclusive.
These entries are mostly ones the record files as inconclusive; other results of the assay are not listed here.
A potency from a partial, single-point or poor curve is only a rough figure.

{"compound": "CCCCC(=O)OC1CCC2C3CCc4cc(O)ccc4C3CC[C@]12C", "stereo": "some centres not stated", "tested on / at": "P94_40", "Potency (nM)": "10000", "remark": "inhibitor, single point"}
{"compound": "CCCCC(=O)OC1CCC2C3CCc4cc(O)ccc4C3CC[C@]12C", "stereo": "some centres not stated", "tested on / at": "parasite line B", "Potency (nM)": "10000", "remark": "inhibitor, single point"}
{"compound": "CCCCC(=O)OC1CCC2C3CCc4cc(O)ccc4C3CC[C@]12C", "stereo": "some centres not stated", "tested on / at": "Dd2", "Potency (nM)": "11220", "remark": "inhibitor, single point"}
{"compound": "CCCCC(=O)OC1CCC2C3CCc4cc(O)ccc4C3CC[C@]12C", "stereo": "some centres not stated", "tested on / at": "7G8", "Potency (nM)": "11220", "remark": "inhibitor, single point"}
{"compound": "CCCCC(=O)OC1CCC2C3CCc4cc(O)ccc4C3CC[C@]12C", "stereo": "some centres not stated", "tested on / at": "TAB113", "Potency (nM)": "17782", "remark": "inhibitor, single point"}
{"compound": "CCCCC(=O)OC1CCC2C3CCc4cc(O)ccc4C3CC[C@]12C", "stereo": "some centres not stated", "tested on / at": "W2", "Potency (nM)": "13459", "remark": "inhibitor, single point"}
{"compound": "CCCCC(=O)OC1CCC2C3CCc4cc(O)ccc4C3CC[C@]12C", "stereo": "some centres not stated", "tested on / at": "DIV17", "Potency (nM)": "19011", "remark": "inhibitor, single point"}
{"compound": "CCCCC(=O)OC1CCC2C3CCc4cc(O)ccc4C3CC[C@]12C", "stereo": "some centres not stated", "tested on / at": "ATS189", "Potency (nM)": "8912", "remark": "inhibitor, single point"}
{"compound": "CCCCC(=O)OC1CCC2C3CCc4cc(O)ccc4C3CC[C@]12C", "stereo": "some centres not stated", "tested on / at": "AS120", "Potency (nM)": "17782", "remark": "inhibitor, single point"}
{"compound": "CCCCC(=O)OC1CCC2C3CCc4cc(O)ccc4C3CC[C@]12C", "stereo": "some centres not stated", "tested on / at": "CP191", "Potency (nM)": "17782", "remark": "inhibitor, single point"}
{"compound": "CCCCC(=O)OC1CCC2C3CCc4cc(O)ccc4C3CC[C@]12C", "stereo": "some centres not stated", "tested on / at": "TAB165", "Potency (nM)": "17782", "remark": "inhibitor, single point"}
{"compound": "CCCCC(=O)OC1CCC2C3CCc4cc(O)ccc4C3CC[C@]12C", "stereo": "some centres not stated", "tested on / at": "P93_24", "Potency (nM)": "11220", "remark": "inhibitor, single point"}
{"compound": "CCCCC(=O)OC1CCC2C3CCc4cc(O)ccc4C3CC[C@]12C", "stereo": "some centres not stated", "tested on / at": "ATS95", "Potency (nM)": "8912", "remark": "inhibitor, single point"}
{"compound": "CCCCC(=O)OC1CCC2C3CCc4cc(O)ccc4C3CC[C@]12C", "stereo": "some centres not stated", "tested on / at": "DIV14", "Potency (nM)": "13459", "remark": "inhibitor, single point"}
{"compound": "CCCCC(=O)OC1CCC2C3CCc4cc(O)ccc4C3CC[C@]12C", "stereo": "some centres not stated", "tested on / at": "CP256", "Potency (nM)": "17782", "remark": "inhibitor, single point"}
{"compound": "O=C(O)c1cc(O)c(O)c(O)c1", "tested on / at": "TAB165", "Potency (nM)": "10000", "remark": "inhibitor, single point"}
{"compound": "O=C(O)c1cc(O)c(O)c(O)c1", "tested on / at": "CP237", "Potency (nM)": "14125", "remark": "inhibitor, single point"}
{"compound": "O=C(O)c1cc(O)c(O)c(O)c1", "tested on / at": "CP260", "Potency (nM)": "15848", "remark": "inhibitor, single point"}
{"compound": "O=C(O)c1cc(O)c(O)c(O)c1", "tested on / at": "C2A", "Potency (nM)": "11220", "remark": "inhibitor, single point"}
{"compound": "O=C(O)c1cc(O)c(O)c(O)c1", "tested on / at": "CP262", "Potency (nM)": "19011", "remark": "inhibitor, partial curve, poor fit"}
{"compound": "O=C(O)c1cc(O)c(O)c(O)c1", "tested on / at": "ICS", "Potency (nM)": "17782", "remark": "inhibitor, single point"}
{"compound": "O=C(O)c1cc(O)c(O)c(O)c1", "tested on / at": "CP335", "Potency (nM)": "16944", "remark": "inhibitor, single point"}
{"compound": "O=C(O)c1cc(O)c(O)c(O)c1", "tested on / at": "N140", "Potency (nM)": "10000", "remark": "inhibitor, single point"}

Repeated from the top, 2 entries:

| Compound | tested on / at | Potency (nM) | remark |
|---|---|---|---|
| `CCCCC(=O)OC1CCC2C3CCc4cc(O)ccc4C3CC[C@]12C` (some centres not stated) | P94_40 | 10000 | inhibitor, single point |
| `CCCCC(=O)OC1CCC2C3CCc4cc(O)ccc4C3CC[C@]12C` (some centres not stated) | parasite line B | 10000 | inhibitor, single point |

The results are deposited in PubChem (AID504749; NCATS, 2011).